Measurements published in PMC6882875.
Protein sequences can lack the tags named with them. Construct, isoform or probe ends are uncertain for at least one entry.

How the values were obtained:
[1] = test system: T1, AraQ (Bifidobacterium breve UCC2003); assay: EMSA; details: 150 nM protein, EMSA: binding buffer stock 80 mM Tris-HCl pH 8.0, 20 mM MgCl2, 2 mM DTT, 4 mM EDTA, 400 mM KCl, 40% glycerol (final dilution not stated), poly(dI-dC) 0.05 ug/ul, recombinant protein, protein details: C-terminal His10, probe letters rebuilt from the primers and the genome
T1 sequence (looked up, limits assumed): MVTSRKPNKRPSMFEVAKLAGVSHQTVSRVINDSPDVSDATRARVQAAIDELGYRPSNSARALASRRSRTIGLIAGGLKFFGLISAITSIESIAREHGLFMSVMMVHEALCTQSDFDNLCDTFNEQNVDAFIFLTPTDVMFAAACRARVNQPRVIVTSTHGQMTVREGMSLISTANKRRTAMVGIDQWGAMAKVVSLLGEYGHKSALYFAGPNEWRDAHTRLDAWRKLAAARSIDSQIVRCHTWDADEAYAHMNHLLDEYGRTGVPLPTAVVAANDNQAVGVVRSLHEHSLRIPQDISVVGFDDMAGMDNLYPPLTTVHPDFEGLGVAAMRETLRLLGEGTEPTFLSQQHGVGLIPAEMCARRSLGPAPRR

[2] = test system: T2, MalR1 (Bifidobacterium breve UCC2003); assay: EMSA; details: 150 nM protein, EMSA: binding buffer stock 80 mM Tris-HCl pH 8.0, 20 mM MgCl2, 2 mM DTT, 4 mM EDTA, 400 mM KCl, 40% glycerol (final dilution not stated), poly(dI-dC) 0.05 ug/ul, recombinant protein, residues 1-338, protein details: C-terminal His10, probe letters rebuilt from the primers and the genome
T2 sequence (looked up): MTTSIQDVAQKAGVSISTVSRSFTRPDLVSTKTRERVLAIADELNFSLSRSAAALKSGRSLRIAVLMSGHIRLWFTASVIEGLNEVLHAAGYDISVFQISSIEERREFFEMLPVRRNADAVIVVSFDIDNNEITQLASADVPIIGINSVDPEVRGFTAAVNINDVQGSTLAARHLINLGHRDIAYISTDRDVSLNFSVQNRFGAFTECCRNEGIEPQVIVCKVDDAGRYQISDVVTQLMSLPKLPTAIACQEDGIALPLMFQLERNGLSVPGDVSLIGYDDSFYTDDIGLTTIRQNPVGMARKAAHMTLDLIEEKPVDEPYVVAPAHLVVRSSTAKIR

[3] = label: 5' IRD700 (both strands)
[4] = titrated 0-250 nM in Fig. 2, label: 5' IRD700
[5] = label: 5' IRD700, counted as no binding

GCAAGGCGTTTGGCGAGCGAGCTGAATCGTCGTACGGCCATATGAGTCCTTTCTCTCATCCTTGAGCATTGACCGCACGAACCATGAAGGGGAACACCCCCTATCGCACGGTCAGACCGTTGACAACGTTTGCAACACTTTCAGCACCACTCCTGCAGAAACGGCATGCAGCACAGTTGACAGACTGCATACGTTCGCAACACTATGTCCCAATCAGCATACCACACCAAGCAACACTTCCCCCAGCTTCGCGCTAACGTTTGCAGTATATGATACAAATGATTACACATCGTGGATGGCGCAACCCGTTAGGGGATTACGTGGCATAGCCGATACCACGAATTGCACGAGGAGGAACATGGGCAAGGCAGACATCTACC (double strand) [malR3/apuB intergenic region]
binding signal [1, 3]: < 15 % bound
binding signal [2, 3]: < 15 % bound

GCATTGCCTCAGGTAAGCCGTTTCCATGAATTCAGTGGCGGCATCGGCAAGCTGGACACCGAAGTGTCCAAGCTGTTGGTTCGCTGACCGGACGTGAGCCCCAACTTCCGTGGATTCACGCCGTCGGTCCAATACGGGAAACCGCATATCGGTTGCCGGCGATCCACAATGTGAGCGCTCACAAAAAAACGACGTTTTTGCTCAAAACGCACGCTCAGACATTGCCATGTGTACAGAGTCGGCATTACAGTAGCAACTGTTGGTAAACAATGGCCCGGTGTGCCAGAGCGCACCACGGGCACCCTACAAGGGAGAATTACATGACAGTTAAGATTGGTATCAACGGCTTCGGTCGCATTGGTC (double strand) [gap promoter]
binding result [1, 4]: binds
binding result [2, 4]: binds

GCCAGCCTACTTTCTCCTCCTTGAGCACACCCGCACTACTGCGTGCGAGTGGTCCGAATTTGGGATTGTTCAGTCTCCTCAGTGCTGAATAGCACCAAATCGAACCGGTTTAAGGTTACCATACCACGCGTATGACCGATGGTCAAACGTTGTCACAGAAAGCGTGTCCATCACTCCTTCCTCGCTGCCTAGGCACAGGGCAAAATGCTGGAAATACTGATTTTTGGCATTTCCGATGCAGAATAACACATATGATAACGTTGTCTTATCGACTGCTCAACACATGGTCGACGCCGTCCGCGTTTATTGTTGTGTCATAGACGCATCTCACTGCAAAGGAGACCGGCATGG (double strand) [malG2 (F2) promoter]
binding result ([1]; label: 5' IRD700): binds
binding signal [2, 5]: 0 % bound

GCCGATAGAACAGCGTATGGGTCCGTACAAGACCAAAGAAGACGCCGAACATGCGTGGGATATAGTGGTGGACCGTAACGCCAAATGGGATGAGGAAAACCGCCGCTGGGATAACTACGGCGTCAAACCGCCCGCCGGCAAATCGTCGGATACCGACTGACCATATGTGTTTTCGCCGCGATCGGCGAACATGCCGATGACGGATGACAGATAGCTACACCGCTCAACTTCACATCGAGAGTTGAGCGGTTTTGTCTAATATCGGCCGTGACAATCGGACGGCGGATGCTGGAAACCGCTGGATTGGTAGCGCTCACAGAAGAATGTGAGATAGCTCACTCCCAATTTCAGCTTTTCTCAAGACTGTGCAAACTACACTAGTGAAGCAAGGGTTCCGTGAAGATGCGAAACCTACAACCCCATTAAGGAGTGACATGACCGCAGTAGAAAATGCAGCTGTCTCCCAAGAGGAGCTCGACGCCAAG (double strand) [pflB-pflA promoter]
binding result ([1]; label: 5' IRD700): binds
binding result ([2]; label: 5' IRD700): binds

GCCGTTGTATTCGTGTGTCATCGGATATTCGCCGTCTTGGGTGAGAATGGTCACGGATTTGGCAAGTGGACGCAGCACACGGATTGTGGCGGTATCGGCATGCTTGCCAATGCCGAGATGCCCGCCAAGAACTCCGTGGGGGTTGTAGAATTCAGCATTGCTCACCGCGTCGAGGTCACTTTGGGCAACAGGCACGGTGACGGTATCTTCCTTGATCTTCGTTTCATTAGCCATGCCCCAAAGTCTACGTGCGTTGGTGTCGGAAACGCTACATTGGCGCGTCGAAAATGGCGAATTTATGCCGCTTAGAGTGTTGTCGCTTGATTGTGAGCGCTCTCATTGTCCCAGTCCAGACCATATGGCACAATTATTCGAGTTTTTGTGAGTAATCCGTCAGTTCTCGGAGGATACATGTCTTATCAAGTCGGCGATATGGTCGTCTACCCACGTCATGGTGCAGCAAAAGTGGAGGCCATCACCGAGCGGACGGTTAAGGGCGTGACGCGCGAATATCTGCAGTTGTCCGTACTTTCCTCCGACGGTCTGGTCATCAATGTGCC (double strand) [carD promoter]
binding result [1, 3]: binds
binding result [2, 3]: binds

GCGACGATGACGAATCCGAAACTGACCACTTTTGCCCAGCCGTTGCACGATATGGCTCAGGTGATTGCCGAAATGCTGTGTTGGCGGTTGGAGCACGGGGAATGGAACACTGTGGCACAAGTATTGCCTGCGTCACTAATCAAACGTGATAGCGTCTGATGGTATTGCCCGAATCAGCGGTTGTATTTTTTGAAATCCATGCCTGAATGCTAATCCGGCATGGATTTGTTGTTTTTCGTAGGGTGTGCTATCTTAGAACTGTTTTTGGAAACGGTTCCAAAAATAAAGGGAAGTGATGAGGCTTTCCGAATCGAGCGCAGTGATGCGGAAGGAGATAAAATGAAGAGGTCAAAGGCGATGTTTTCAGCTGTGTTAGCTGTTGCTACCGTGGTGAGCCTCGCAGCTTGCGGTACTGCTAATAATAGTGGAAACGCTACCACTAAAGATGGAAAAACGATTATCAAGATTCAAACCTTTAATAATTTTGGCTATGGTAAGCCCACCAATGAGCGCCCAAGTGC (double strand) [cldE promoter]
binding signal [1, 5]: 0 % bound
binding result ([2]; label: 5' IRD700): binds

GGCACCAATAACAGCAAGCTTCGTGGGCTTAACGGTAGTTTCCGCCATGATGGATAAACCTCTCTTCAAAGGCGGTCTGCTGATGAATGGCAGGCCTTGTAACTAACGGTTTCACTTTATAAACCCGCTAAGACGTTTCGCGGGCCACAATGCATATCCAATGATGCCATAACCCTAATGTTTTCAGCAGTTGTTAGCGCTCACAGCCATTATGTGATTTTCGTCACGTTATTTATGCGATTGATTGCTCCATGATTTGCGCAGCCAAGTGCGAATCGACATCC (double strand) [ldh2 promoter]
binding result [1, 3]: binds
binding result [2, 3]: binds

GGCTCTTGCGAACGAATGTAATCTTCCACCACAGCGCGCAGTACCAGCATGCGACGTGATTGCGTCATGCGCGCCTCCTTATATGTACATCTGCCGTATGCAATCTGCTCTCATTGTATTAGCACTCATTGGTTTCGAGTGCTAATGCGTTCGTTTGCGGCGAAGTGATGTGAATTGTGAACGCTAACAGAACACAAACTACCAAAACACGCCAAAATTGCACCATAACGTCGCAAACCATCGCTAGCATGGTAAGCGCAATGTGAGGGCGTCAAGCGCCCGGCACAAGCCGGATACGCGGCCCGACCAATTGGAAGGAAAGTAATCCATGACCGAATTCAAGGAGACCGAGC (double strand) [tkt-tal promoter]
binding result ([1]; label: 5' IRD700): binds
binding result ([2]; label: 5' IRD700): binds

GGTTGCCACGAGAATCCAGAATCTGACGTGCGTACACGCTTTCAATTGCTGCCACAACTACTCCTTAAAACGGTTGTGTATCTTGAATGACATTCATAAGAGTAGTGCGATTTGTGGACGTTGTGAACAACACGCCCAAAATTTGATGTGAGCGCTCACAATGTCGGTGTGCCGCGTGATTGCAGTCAACTTTGGAGGAAAACGCTTAGGCGCTGATTACATCATTGAGATAGTCGATTTCGCTATCGGACAATTCAAGAGTGACCGCTTTGAACGAGTCCTGAATCTCCTGTGGGTTTCTAGCGGAGGGAATCGTAAACAGATTGCCATATTGTGCAAGCTCCCAAGCAAGCGTGACACGCTGGTAGGAGCAGCCGTGATTGTCGGCGACTTCCTTG (double strand) [eno promoter]
binding result ([1]; label: 5' IRD700): binds
binding result ([2]; label: 5' IRD700): binds
